Source: PubChem BioAssay AID1259272 (Sanger Institute, 2017)
In all, the deposit lists 794 reagents; this is a part drawn at random. In the full data, 7 (0.88%) got an active call. 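Essential calls reflect knock-down without drug only, not synergy with drugs; drug exposure length not given.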 No viability above 1 is reported: the scale is capped. Not all columns of the deposit are shown. Reagent sequences are not shown. Not stated in the record: the amount of reagent, the time to read-out.

- Test: 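Kinase knock-downs lethal to colorectal cancer cells, with or without anchor drugs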 (primary screen)
- System: SW1116 human colorectal cancer cells
- Reagents: siRNA pool against human genes
- Conditions: anchor drugs BYL719 (1 µM), cetuximab (5 µg/ml) or trametinib (10 nM), or DMSO vehicle; exposure length not given
- Detection: 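Cell survival as a fraction of wells given a non-targeting pool, averaged over replicates; robust z-score without drug; synergy score for each of BYL719, cetuximab and trametinib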
- Reading the numbers: viability z-score, no drug: higher = more cells remaining; strongly negative means essential gene; viability, no drug: higher = more viable cells; synergy score with BYL719: higher = stronger synthetic-lethal synergy with the drug
- Hit rule: 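Called essential if the drug-free knock-down gives a robust viability z-score below -3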
- Meaning of the calls: active = essential (knock-down alone); inactive = no change

no.	gene symbol	viability z-score, no drug	viability, no drug (fraction of control)	synergy score with BYL719	activity call
1	MLKL (mixed lineage kinase domain like pseudokinase)	0.76	0.991	-0.0868	inactive
2	PRKAB1 (protein kinase AMP-activated non-catalytic subunit beta 1)	-1.7	0.729	-0.15	inactive
3	DGKH (diacylglycerol kinase eta)	-0.0581	0.904	-0.0205	inactive
4	TTBK1 (tau tubulin kinase 1)	0.267	0.939	-0.073	inactive
5	MGA (MAX dimerization protein MGA)	-0.442	0.863	-0.0346	inactive
6	PDGFRB (platelet derived growth factor receptor beta)	-2.45	0.649	-0.0782	inactive
7	RPS6KL1 (ribosomal protein S6 kinase like 1)	-0.137	0.896	0.0064	inactive
8	RIPK2 (receptor interacting serine/threonine kinase 2)	0.842	1	0.024	inactive
9	PIK3C2A	-1.52	0.748	-0.0221	inactive
10	MAST2 (microtubule associated serine/threonine kinase 2)	-0.365	0.871	-0.168	inactive
11	NEK9 (NIMA related kinase 9)	0.842	1	0.0567	inactive
12	UHMK1 (U2AF homology motif kinase 1)	0.842	1	0.119	inactive
13	NRAS (NRAS proto-oncogene, GTPase)	0.842	1	-0.0697	inactive
14	MAP3K10 (mitogen-activated protein kinase kinase kinase 10)	0.842	1	-0.0307	inactive
15	FN3K (fructosamine 3 kinase)	-1.64	0.736	-0.142	inactive
16	GK (glycerol kinase)	0.842	1	-0.0201	inactive
17	CHKA (choline kinase alpha)	-1.59	0.741	-0.121	inactive
18	PTK2 (protein tyrosine kinase 2)	-0.0937	0.9	-0.111	inactive
19	SMG1	0.842	1	0.115	inactive
20	GRK3 (G protein-coupled receptor kinase 3)	0.842	1	-0.0696	inactive
21	RPS6KA3 (ribosomal protein S6 kinase A3)	-0.639	0.842	-0.14	inactive
22	CAMK2G (calcium/calmodulin dependent protein kinase II gamma)	0.173	0.929	-0.0356	inactive
23	SCYL3 (SCY1 like pseudokinase 3)	-0.884	0.816	-0.114	inactive
24	IPPK (inositol-pentakisphosphate 2-kinase)	0.842	1	0.00616	inactive
25	CDK16 (cyclin dependent kinase 16)	0.842	1	-0.0128	inactive
26	IPMK (inositol polyphosphate multikinase)	0.842	1	-0.054	inactive
27	PTK6 (protein tyrosine kinase 6)	0.421	0.955	0.0671	inactive
28	MED12 (mediator complex subunit 12)	-1.39	0.762	-0.19	inactive
29	SYK (spleen associated tyrosine kinase)	-3.91	0.494	-0.18	active
30	MAP3K7 (mitogen-activated protein kinase kinase kinase 7)	-0.712	0.835	-0.198	inactive
31	MAST3 (microtubule associated serine/threonine kinase 3)	0.842	1	-0.0788	inactive
32	NME6 (NME/NM23 nucleoside diphosphate kinase 6)	0.842	1	0.0447	inactive
33	BTK (Bruton tyrosine kinase)	-0.387	0.869	-0.166	inactive
34	PLK2 (polo like kinase 2)	0.2	0.932	-0.0625	inactive
35	KMT2B (lysine methyltransferase 2B)	-1.11	0.792	-0.148	inactive
36	RPS6KA6 (ribosomal protein S6 kinase A6)	0.842	1	0.0718	inactive
37	NEK6 (NIMA related kinase 6)	0.842	1	-0.0788	inactive
38	MARK4 (microtubule affinity regulating kinase 4)	-0.598	0.847	-0.00396	inactive
39	CDC42BPG (CDC42 binding protein kinase gamma)	0.842	1	0.00106	inactive
40	STK32B (serine/threonine kinase 32B)	0.753	0.991	-0.0491	inactive
41	BUB1B (BUB1 mitotic checkpoint serine/threonine kinase B)	-0.652	0.841	0.00404	inactive
42	DYRK1B	0.842	1	0.102	inactive
43	PANK1 (pantothenate kinase 1)	0.842	1	0.00173	inactive
44	MTOR (mechanistic target of rapamycin kinase)	0.449	0.958	-0.117	inactive
45	SMC1A (structural maintenance of chromosomes 1A)	-1.35	0.767	-0.0568	inactive
46	WNK3 (WNK lysine deficient protein kinase 3)	0.338	0.946	-0.0144	inactive
47	GCK (glucokinase)	0.842	1	0.148	inactive
48	CKMT2 (creatine kinase, mitochondrial 2)	0.357	0.948	0.0328	inactive
49	CDK11B (cyclin dependent kinase 11B)	0.842	1	-0.0678	inactive
50	CDC42BPB (CDC42 binding protein kinase beta)	0.842	1	-0.0307	inactive

Entries above whose gene name starts with N or n (4):
gene symbol	viability z-score, no drug	viability, no drug (fraction of control)	synergy score with BYL719	activity call
NEK9 (NIMA related kinase 9)	0.842	1	0.0567	inactive
NRAS (NRAS proto-oncogene, GTPase)	0.842	1	-0.0697	inactive
NME6 (NME/NM23 nucleoside diphosphate kinase 6)	0.842	1	0.0447	inactive
NEK6 (NIMA related kinase 6)	0.842	1	-0.0788	inactive
